Measurements published in patent US20260198496A1, “AMIDE COMPOUND AND HARMFUL ARTHROPOD CONTROL COMPOSITION CONTAINING SAME” (SUMITOMO CHEMICAL COMPANY, LIMITED, priority 2023, published 2026).
Some entries share one result that the patent states for a list of compounds. For at least one compound, name, drawing or mass did not settle the structure.

System: diamondback moth (Plutella xylostella)
Assay: Test method 3: sprayed cabbage foliage, second instar larvae of diamondback moth
Type: in vivo
Settings: 500 ppm, after 5 days

Compound	mortality
CCOC(=O)C1N(C(=O)c2cc(Cc3cc4cc(C)c(C)cc4o3)on2)CC2(CCCC2)CN1C(C)C (centres unmarked) [compound 80]	≥ 80%
CCOC(=O)C1N(C)CC2(CCCC2)CN1C(=O)c1cc(Cc2cc3cc(Cl)c(C)cc3o2)on1 (centres unmarked) [compound 102]	≥ 80%
